Data taken from the supplement of paper PMC3334620.
In all, about 33,000 sequences were measured (“E-score (-0.5 to 0.5)”: median about -0.016, highest 2% from about 0.3 on). The list shows a part of the results.

The sequences below were run against T1, Yer184c (UniProt P39961) (assay: PBM E-score (8-mer binding enrichment) (E-score (-0.5 to 0.5)); higher = stronger / more preferred TF binding). Settings: protein concentration: 100 nM; construct: GST-full length.
T1 sequence: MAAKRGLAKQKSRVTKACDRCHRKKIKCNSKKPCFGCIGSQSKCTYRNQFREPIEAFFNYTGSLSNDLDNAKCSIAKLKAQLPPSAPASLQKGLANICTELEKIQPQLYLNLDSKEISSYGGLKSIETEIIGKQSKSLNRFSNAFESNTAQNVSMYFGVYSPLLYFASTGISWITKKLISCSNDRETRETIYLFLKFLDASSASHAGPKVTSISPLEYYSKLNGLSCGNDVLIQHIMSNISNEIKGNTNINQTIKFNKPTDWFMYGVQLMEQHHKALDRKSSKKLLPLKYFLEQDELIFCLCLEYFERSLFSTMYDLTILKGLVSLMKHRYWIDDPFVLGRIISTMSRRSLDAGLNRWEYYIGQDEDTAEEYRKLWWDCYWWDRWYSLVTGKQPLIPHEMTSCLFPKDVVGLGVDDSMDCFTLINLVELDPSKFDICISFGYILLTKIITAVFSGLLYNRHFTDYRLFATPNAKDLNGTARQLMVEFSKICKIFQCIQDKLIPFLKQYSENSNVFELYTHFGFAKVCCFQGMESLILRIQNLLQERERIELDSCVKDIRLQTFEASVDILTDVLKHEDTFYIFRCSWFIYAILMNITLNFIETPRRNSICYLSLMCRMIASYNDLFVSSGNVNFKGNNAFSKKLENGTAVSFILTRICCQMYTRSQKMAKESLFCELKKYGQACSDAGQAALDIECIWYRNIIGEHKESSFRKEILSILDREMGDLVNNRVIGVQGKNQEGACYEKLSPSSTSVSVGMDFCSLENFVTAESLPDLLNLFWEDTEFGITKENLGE
In short: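 Universal all-10-mer Agilent arrays, double-stranded by primer extension on fresh or once-stripped slides, were probed with about 100-200 nM GST-tagged yeast transcription factors made by PURExpress. Fluorescent anti-GST detected bound protein, and masliner normalised the scans. E-scores from the Universal PBM Analysis Suite were given to each ungapped eight-base word pooled with its reverse complement.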

Sequence	PBM E-score
AAGATTCC	0.194
GCTGAACC	0.0738
CCCCCTAC	-0.346
CCAATGAA	-0.0742
CGTGTATC	0.0553
ACCACTGA	-0.0552
ATATAGTC	0.113
CCCGGCGA	0.236
CCCCTAAC	-0.157
CATCACAG	-0.209
GCAAACGA	0.203
ACGCGAGA	-0.00904
CTATCTTC	-0.0511
GAGCAAAC	-0.0268
GAAGCGGA	0.0741
AGGACTAT	-0.238
CCAACGCG	0.026
AACGCCAT	-0.134
ATGACCAT	-0.0315
CACGAAGG	0.0461
CTGCATGA	-0.301
AACGACGT	-0.0552
ATGACGGG	0.0808
ATTACATG	0.113
CATGGAAG	0.0843

Sequence	PBM E-score
AAGCAATC	-0.0597
AAAGTAGC	0.108
ACTCTGTA	-0.0169
GTTCGAAA	0.207
AAGTTTTA	0.175
ATAGGTTC	-0.0318
AACCCCCT	-0.381
CGTTATCA	0.0634
TACAGTAA	-0.0442
CTTATGAA	0.00995
TAGTGTCA	0.105
AGAATCCT	-0.138
AGCTTCAA	0.0442
TCCCGGAA	0.391
AAGACAGC	-0.0302
ATTCACCC	-0.155
ATTTTAAC	0.028
CGAGGCAC	-0.0493
CCGTAATA	0.155
CTCGTTTC	-0.00256
CGAGAGAA	0.0551
GGAATTAC	0.19
CGCTCTCA	-0.171
AATAGGAT	0.264
TACGTTGA	-0.117

Sequence	PBM E-score
GAGGTTGC	-0.145
AGAACTCC	-0.138
GTGGGGTA	-0.0198
ACTCGTTG	-0.134
TGTTCGAA	0.16
AACATGAA	-0.00023
GAAATCGA	0.0893
CCCTTCGA	-0.2
CACAGACA	0.163
CCGATAAA	0.239
CTCCTAAG	-0.104
GGGTGATA	-0.22
AGGGGCCG	-0.268
ATGCATTG	-0.0672
CGCGATAA	0.0428
CAGATGGA	0.025
ACTACACA	0.0341
AACAGGTC	-0.138
TGACAGAA	0.0155
ATGAAAAC	0.231
GATATACA	0.128
ACCTTGTC	-0.162
AGAGTTCC	-0.059
AGAGTCCG	0.107
ACTCCGTG	0.1

Sequence	PBM E-score
AAACTGGG	-0.182
ATTACGCA	0.00982
CTATGCCC	-0.16
AAACCTCT	-0.00834
CGAGGTCC	0.123
ATTCCATG	0.035
GACCATCC	-0.237
CATCTCCG	0.37
CCCACTCC	-0.218
AAGCCACA	-0.0901
ATTCTTCC	0.083
GCACACCA	-0.0483
CCGCCATA	0.191
ATGTCTGC	-0.0345
AACGACCC	0.0359
GCACTATA	-0.0644
TCGCGTCA	-0.0846
CCCGGAGC	0.232
GTCCATTA	0.0785
ATGTTTCA	0.0651
GAAGGGAC	-0.0856
AAGACCAT	-0.0743
CCGGGACC	0.342
CTCACAAG	-0.177
CGTATATA	0.03

Sequence	PBM E-score
GAGATCAA	0.116
AAGCTGAT	0.0938
CCTATAGA	-0.0673
CCCCGAAG	0.0368
CACAGCAC	-0.192
ACAAGTAC	0.00537
GGCTACAC	0.00875
AATTTTCG	0.092
AGGACAAG	-0.102
GGATCAAA	0.135
GGATCGCC	0.0301
AAAGACGA	-0.03
GACAGGTA	-0.0915
AGGGAGAG	-0.176
CACGTCGA	-0.301
AGCACTAA	0.0623
AGGTAGGC	-0.282
CATTGAGG	-0.17
CCTTGGTA	0.0994
AGTTCTCC	-0.00082
CTAAATCC	0.157
GCTTGTAA	0.0592
ATCCATGG	-0.161
CGGGATTC	0.272
CTTTGGTC	0.121

Random excerpt: 3 entries already listed, in no set order.
Sequence	PBM E-score
GGATCAAA	0.135
AGTTCTCC	-0.00082
ATCCATGG	-0.161

Later entries

Sequence	PBM E-score
AACGCTAA	-0.162
AAATTCGA	0.00404
GGCATTGA	0.0573
TCCACACA	-0.00582
AGATCGAC	-0.04
CAGTGTCG	-0.178
CTAAAAAG	0.109
GCCAAGGC	-0.337
AATATTTA	0.216
ATGCACTG	-0.0313
ACACGGTC	0.00162
AGTTACAG	-0.0219
CACGATAG	0.0147
CCAAATGA	0.0957
GCAGTCAA	-0.202
AGCTGGGC	-0.0964
AGCGGAAT	0.0752
CGAACGCC	-0.0187
GATCATTA	0.104
GTCGTAAA	-0.0446
CCAACACC	-0.167
AAAGTGTG	-0.0177
AAAACTCC	-0.108
ATTGGGAG	-0.0909
ACCAAAGA	0.189

Not a retest: an excerpt of the list.
Sequence	PBM E-score
AAAGTGTG	-0.0177
AAAACTCC	-0.108
ATTGGGAG	-0.0909
ACCAAAGA	0.189

Carrying on:

Sequence	PBM E-score
TAGCAATA	0.152
CACTACTC	0.0536
AGAACAAT	0.174
CGTATAGC	-0.00851
ACGTGTAC	-0.135
AGTATAAT	0.22
CTCGCCGA	0.193
ATCGGATC	0.298
AGGCGTTA	-0.172
CAATCCAA	-0.12
CAAAGATA	0.156
TACTACCA	-0.144
CGTCCAGA	-0.136
GCATATCC	0.00395
CCGGACAC	0.286
ATCTTGCA	0.182
GAAGCACC	-0.0419
CCGTGCAG	0.154
GACTACTC	-0.0939
AGATACTG	-0.0186
ACTCTCAC	-0.00377
CATAATAA	0.0808
